# According to patent US20110268688A1, “METHOD AND COMPOSITIONS FOR IMPROVING SKIN AND BODY APPEARANCE” (priority 2008, published 2011):
# For at least one compound, name, drawing or mass did not settle the structure.
# System: adipocytes
# Test: Lypolysis Assay Kit (dual glycerol and free fatty acids detection), adipocyte lipolytic activity
# Type: cell-based
# Conditions: forskolin 25, 2.5, 0.25 micromolar; conjugated linoleic acid 10, 1, 0.1 micromolar; 5 hours at 37° C.; optical density at 540 nanometers
# Description: Suitable lipolytic agents may be identified by conducting a simple test using a lipolysis assay kit purchased from Zen-Bio. One suitable kit is the Lypolysis Assay Kit (dual glycerol and free fatty acids detection, reagents+cells) purchased from Zen-Bio (www.zen-bio.com) under catalog no. LIP-3.
# The adipocyte lipolytic activity of ingredients was tested using Lypolysis Assay Kit (dual glycerol and free fatty acids detection, reagents+cells) purchased from Zen-Bio (www.zen-bio.com) under catalog no. LIP-3. Serial dilutions of forskolin and conjugated linoleic acid were prepared in Krebs-Ringer Buffer containing 1% by weight free fatty acid bovine serum albumin. Culture medium was removed from the plate wells and the cells were washed with phosphate buffered saline. The forskolin test material was added to the test wells to provide wells having a total concentration of 25, 2.5, and 0.25 micromolar. The conjugated linoleic acid test material was added to the test wells to provide concentrations of 10, 1, and 0.1 micromolar. The plate was incubated for 5 hours at 37° C. Fifty microliters of test material was removed from each plate and transferred to clean wells. Triglyceride breakdown was tested by measuring for the presence of glycerol or NEFA (non-esterified fatty acids). […] The optical density of each well of the glycerol and NEFA plate wells was measured at 540 nanometers.
smiles,measurement,value
C=C[C@@]1(C)CC(=O)[C@]2(O)[C@@]3(C)[C@@H](O)CCC(C)(C)[C@@H]3[C@H](O)[C@H](OC(C)=O)[C@@]2(C)O1 [forskolin],"adipocyte lipolytic activity (triglyceride breakdown, glycerol or NEFA)",effective in increasing lipolysis of adipocytes
